# Results reported in the supplement of paper PMC4635364.
# Structures can show the parent of a compound that is named as a salt. Some of the results follow. Single values are uncertain here, since repeats match poorly.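 ReNCell VM, a human fetal ventral-midbrain neural progenitor line, was differentiated without mitogens. Blinded raters scored images stained for doublecortin (early neurons) or tyrosine hydroxylase (dopaminergic neurons) against untreated wells (0 = no change). Scores were averaged across repeats and both raters, and compounds averaging 2 or more were selected as hits for retesting.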
# Columns and labels:
# ReNCell VM [1] = assay: neuronal differentiation score (DCX+ cell fraction vs untreated, manual image score) (score (-3 to 3)); higher = more neuronal differentiation; settings: 2 uM, 2 weeks
# ReNCell VM [2] = assay: dopaminergic neuron differentiation score (TH+ cell fraction vs untreated, manual image score) (score (0 to 3)); higher = more TH+ dopaminergic neuron differentiation; settings: 2 uM, 4 weeks, BDNF 10 ng/ml + GDNF 10 ng/ml
structure (smiles),measurement,setting,value
COc1c2ccoc2cc2oc(C)cc(=O)c12,neuronal differentiation score,ReNCell VM [1]; library: Spectrum,inactive: 0
same,dopaminergic neuron differentiation score,ReNCell VM [2]; library: Spectrum,inactive: 0
CC(=O)O[C@H]1C[C@@H](OC(C)=O)C(C)(C)C2CC(=O)[C@]3(C)C(CC[C@@]4(C)[C@H](C(=O)O)OC(=O)C5OC543)[C@]21C (stereo not given in full),neuronal differentiation score,ReNCell VM [1]; library: Spectrum,inactive: 0
same,dopaminergic neuron differentiation score,ReNCell VM [2]; library: Spectrum,inactive: 0
O=S(=O)(O)CCSSCCS(=O)(=O)O,neuronal differentiation score,ReNCell VM [1]; library: Spectrum,inactive: 0
same,dopaminergic neuron differentiation score,ReNCell VM [2]; library: Spectrum,inactive: 0
c1cc(CN2CCCCC2)cc(OCCCNc2nc3ccccc3s2)c1 [Zolantidine dimaleate],neuronal differentiation score,ReNCell VM [1]; library: Tocriscreen,inactive: 0
same,dopaminergic neuron differentiation score,ReNCell VM [2]; library: Tocriscreen,inactive: 0
Cn1cc(C2=C(c3cn(CCCSC(=N)N)c4ccccc34)C(=O)NC2=O)c2ccccc21 [Ro 31-8220 mesylate],neuronal differentiation score,ReNCell VM [1]; library: Tocriscreen,inactive: 0
same,dopaminergic neuron differentiation score,ReNCell VM [2]; library: Tocriscreen,inactive: 0
CC1=C(/C=C/C(C)=C/C=C/C(C)=C\C(=O)O)C(C)(C)CCC1,neuronal differentiation score,ReNCell VM [1]; library: Spectrum,inactive: 0
same,dopaminergic neuron differentiation score,ReNCell VM [2]; library: Spectrum,inactive: 0
Nc1ccn([C@H]2CC[C@@H](CO)O2)c(=O)n1,neuronal differentiation score,ReNCell VM [1]; library: Spectrum,inactive: 0
same,dopaminergic neuron differentiation score,ReNCell VM [2]; library: Spectrum,inactive: 0
CN(C)CCc1c[nH]c2ccc(CS(=O)(=O)N3CCCC3)cc12,neuronal differentiation score,ReNCell VM [1]; library: Spectrum,inactive: 0
same,dopaminergic neuron differentiation score,ReNCell VM [2]; library: Spectrum,inactive: 0
CC(=O)OCC1=C(C(=O)O)N2C(=O)[C@@H](NC(=O)CSc3ccncc3)[C@H]2SC1,neuronal differentiation score,ReNCell VM [1]; library: Spectrum,inactive: 0
same,dopaminergic neuron differentiation score,ReNCell VM [2]; library: Spectrum,inactive: 0
O=C(CCCCCN1C(=O)c2cccc3cccc(c23)C1=O)NO [Scriptaid],neuronal differentiation score,ReNCell VM [1]; library: Tocriscreen,inactive: 0
same,dopaminergic neuron differentiation score,ReNCell VM [2]; library: Tocriscreen,inactive: 0
CN1CCc2cc(O)c(O)cc2C(c2ccccc2)C1 (stereo not given),neuronal differentiation score,ReNCell VM [1]; library: LOPAC,inactive: 0
same,dopaminergic neuron differentiation score,ReNCell VM [2]; library: LOPAC,inactive: 0
C[C@]12C=CC(=O)C=C1CC[C@@H]1[C@@H]2[C@@H](O)C[C@@]2(C)[C@H]1CC[C@]2(O)C(=O)CO,neuronal differentiation score,ReNCell VM [1]; library: Spectrum,inactive: 0
same,dopaminergic neuron differentiation score,ReNCell VM [2]; library: Spectrum,inactive: 0
COc1ccc(C(=O)c2ccccc2O)c(O)c1,neuronal differentiation score,ReNCell VM [1]; library: Spectrum,inactive: 0
same,dopaminergic neuron differentiation score,ReNCell VM [2]; library: Spectrum,inactive: 0
"CN(C)C(=O)N=NC(=O)N(C)C [N,N,N',N'-Tetramethylazodicarboxamide]",neuronal differentiation score,ReNCell VM [1]; library: LOPAC,inactive: 0
same,dopaminergic neuron differentiation score,ReNCell VM [2]; library: LOPAC,inactive: 0
CC(=O)N(OCc1ccccc1)[C@H]1c2cc(C#N)ccc2OC(C)(C)[C@H]1O,neuronal differentiation score,ReNCell VM [1]; library: Tocriscreen,inactive: 0
same,dopaminergic neuron differentiation score,ReNCell VM [2]; library: Tocriscreen,inactive: 0
Cn1cc(/C=C2\C(=O)Nc3cccnc32)c2ccccc21,neuronal differentiation score,ReNCell VM [1]; library: Tocriscreen,inactive: 0
same,dopaminergic neuron differentiation score,ReNCell VM [2]; library: Tocriscreen,inactive: 0
"CC1=CC(=O)OC1Cc1ccc2ccccc2n1 (stereo not given) [2-(3-methyl-5-oxo-2,5-dihydro-furan-2-ylmethyl)-quinoline]",neuronal differentiation score,ReNCell VM [1]; library: Natural,inactive: 0
same,dopaminergic neuron differentiation score,ReNCell VM [2]; library: Natural,inactive: 0
O=c1ccn([C@@H]2O[C@H](CO)[C@@H](O)[C@H]2O)c(=O)[nH]1,neuronal differentiation score,ReNCell VM [1]; library: Spectrum,inactive: 0
same,dopaminergic neuron differentiation score,ReNCell VM [2]; library: Spectrum,inactive: 0
CCC(C(N)=O)c1ccccc1 (stereo not given),neuronal differentiation score,ReNCell VM [1]; library: Spectrum,inactive: 0
same,dopaminergic neuron differentiation score,ReNCell VM [2]; library: Spectrum,inactive: 0
COc1cccc(CCc2ccccc2OCC[C@@H]2C[C@@H](O)CN2C)c1,neuronal differentiation score,ReNCell VM [1]; library: Tocriscreen,inactive: -1
same,dopaminergic neuron differentiation score,ReNCell VM [2]; library: Tocriscreen,inactive: 0
CN(C)[C@@H]1C(O)=C(C(N)=O)C(=O)[C@@]2(O)C(O)=C3C(=O)c4c(O)ccc(Cl)c4[C@@](C)(O)[C@H]3C[C@@H]12 [Chlortetracycline hydrochloride],neuronal differentiation score,ReNCell VM [1]; library: Prestwick,inactive: 0
same,dopaminergic neuron differentiation score,ReNCell VM [2]; library: Prestwick,inactive: 0
NCCCCCc1c[nH]cn1 [Impentamine dihydrobromide],neuronal differentiation score,ReNCell VM [1]; library: Tocriscreen,inactive: 0
same,dopaminergic neuron differentiation score,ReNCell VM [2]; library: Tocriscreen,inactive: 0
CC1CCN(CCCC(=O)c2ccc(F)cc2)CC1,neuronal differentiation score,ReNCell VM [1]; library: Spectrum,inactive: 0
same,dopaminergic neuron differentiation score,ReNCell VM [2]; library: Spectrum,inactive: 0
O=S(=O)(c1cccc2c(Cl)cccc12)N1CCCNCC1 [ML 9 hydrochloride],neuronal differentiation score,ReNCell VM [1]; library: Tocriscreen,inactive: 0
same,dopaminergic neuron differentiation score,ReNCell VM [2]; library: Tocriscreen,inactive: 0
CC12CC3CC(C)(C1)CC(N)(C3)C2,neuronal differentiation score,ReNCell VM [1]; library: Spectrum,inactive: 0
same,dopaminergic neuron differentiation score,ReNCell VM [2]; library: Spectrum,inactive: 0
CN[C@@H]1[C@H](O)[C@H](NC)[C@H]2O[C@@]3(O)C(=O)C[C@@H](C)O[C@H]3O[C@@H]2[C@H]1O [Spectinomycin dihydrochloride],neuronal differentiation score,ReNCell VM [1]; library: Prestwick,inactive: 0
same,dopaminergic neuron differentiation score,ReNCell VM [2]; library: Prestwick,inactive: 0
CC(=O)[C@@]1(O)CC[C@H]2[C@@H]3CCC4=CC(=O)CC[C@]4(C)[C@H]3CC[C@@]21C,neuronal differentiation score,ReNCell VM [1]; library: Spectrum,inactive: 0
same,dopaminergic neuron differentiation score,ReNCell VM [2]; library: Spectrum,inactive: 0
"C[C@H](NC(=O)/C(C#N)=C/c1ccc(O)c(O)c1)c1ccccc1 [Tyrphostin B44, (+) enantiomer]",neuronal differentiation score,ReNCell VM [1]; library: Tocriscreen,inactive: 0
same,dopaminergic neuron differentiation score,ReNCell VM [2]; library: Tocriscreen,active: 3
Cc1c(S(=O)(=O)O)oc2c1C(=O)C(=O)c1c-2ccc2c1CCCC2(C)C,neuronal differentiation score,ReNCell VM [1]; library: Spectrum,inactive: 0
same,dopaminergic neuron differentiation score,ReNCell VM [2]; library: Spectrum,inactive: 0
CC1CCN=C(N)S1 (stereo not given) [AMT hydrochloride],neuronal differentiation score,ReNCell VM [1]; library: Tocriscreen,inactive: 0
same,dopaminergic neuron differentiation score,ReNCell VM [2]; library: Tocriscreen,inactive: 0
Cc1oncc1C(=O)Nc1ccc(C(F)(F)F)cc1,neuronal differentiation score,ReNCell VM [1]; library: Spectrum,inactive: 0
same,dopaminergic neuron differentiation score,ReNCell VM [2]; library: Spectrum,inactive: 0
CCN(CC)CCNC(=O)c1ccc(NC(C)=O)cc1 [N-Acetylprocainamide hydrochloride],neuronal differentiation score,ReNCell VM [1]; library: LOPAC,active: 2
same,dopaminergic neuron differentiation score,ReNCell VM [2]; library: LOPAC,inactive: 0
"O=C(O)c1c(C(=O)O)c2ccccc2[nH]c1=O [2-oxo-1,2-dihydro-quinoline-3,4-dicarboxylic acid]",neuronal differentiation score,ReNCell VM [1]; library: Natural,inactive: -1
same,dopaminergic neuron differentiation score,ReNCell VM [2]; library: Natural,inactive: 0
C=CCN1CCc2cc(O)c(O)cc2C(c2ccccc2)C1 (stereo not given),neuronal differentiation score,ReNCell VM [1]; library: Tocriscreen,inactive: 0
same,dopaminergic neuron differentiation score,ReNCell VM [2]; library: Tocriscreen,inactive: 0
CC1=C(/C=C/C(C)=C/C=C/C(C)=C/C=C/C=C(C)/C=C/C=C(C)/C=C/C2=C(C)CCCC2(C)C)C(C)(C)CCC1 [beta-CAROTENE],neuronal differentiation score,ReNCell VM [1]; library: Spectrum,inactive: 1
same,dopaminergic neuron differentiation score,ReNCell VM [2]; library: Spectrum,inactive: 0

# 5 records drawn at random from the list so far:
structure (smiles),measurement,setting,value
COc1c2ccoc2cc2oc(C)cc(=O)c12,dopaminergic neuron differentiation score,ReNCell VM [2]; library: Spectrum,inactive: 0
CN[C@@H]1[C@H](O)[C@H](NC)[C@H]2O[C@@]3(O)C(=O)C[C@@H](C)O[C@H]3O[C@@H]2[C@H]1O [Spectinomycin dihydrochloride],neuronal differentiation score,ReNCell VM [1]; library: Prestwick,inactive: 0
CC(=O)O[C@H]1C[C@@H](OC(C)=O)C(C)(C)C2CC(=O)[C@]3(C)C(CC[C@@]4(C)[C@H](C(=O)O)OC(=O)C5OC543)[C@]21C (stereo not given in full),dopaminergic neuron differentiation score,ReNCell VM [2]; library: Spectrum,inactive: 0
CN1CCc2cc(O)c(O)cc2C(c2ccccc2)C1 (stereo not given),dopaminergic neuron differentiation score,ReNCell VM [2]; library: LOPAC,inactive: 0
CCN(CC)CCNC(=O)c1ccc(NC(C)=O)cc1 [N-Acetylprocainamide hydrochloride],neuronal differentiation score,ReNCell VM [1]; library: LOPAC,active: 2
